Results are given in words; binding and its absence hold for the method and conditions named. Some results given as binding are weak or reduced against the parent protein; the word gives no strength.
Key:
recombinant mouse PlGF-2 [1] = biological target: T1, recombinant mouse PlGF-2 (mouse, UniProt P49764 24-158, limits assumed); experiment: competition ELISA on murine PlGF coated plates
T1 sequence (looked up): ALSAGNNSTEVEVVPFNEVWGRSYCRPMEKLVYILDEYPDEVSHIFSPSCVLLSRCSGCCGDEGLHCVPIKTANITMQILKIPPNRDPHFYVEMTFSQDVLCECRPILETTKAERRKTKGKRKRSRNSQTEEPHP

recombinant mouse PlGF-2 [2] = biological target: T1, recombinant mouse PlGF-2; experiment: competition ELISA on mPlGF-coated plate; blocked ligand: biotinylated NRP-1-Fc
recombinant mouse PlGF-2 [3] = biological target: T1, recombinant mouse PlGF-2; experiment: competition ELISA on mPlGF-coated plate; blocked ligand: biotinylated NRP-2
Experimental: The ability of the anti-PlGF Mabs C9.V2 and 7A10 to block the interaction between PlGF and its co-receptors NRP-1 and NRP-2 (Gluzman-Poltorak et al., 2000; Mamluk et al., 2002) was also tested. For PlGF/NRP1 and PlGF/NRP2 competition binding assays, Microtiter plates (Nunc, Rochester, N.Y., USA) were coated with recombinant mouse PlGF (BioVision, Mountain View, Calif., USA) either at 2 μg/mL (for PlGF/NRP1 binding) or at 4 ug/mL (for PlGF/NRP2 binding) in PBS. After an overnight incubation at 4° C., assay plates were washed with wash buffer (PBS/0.05% Tween 20) and treated with block buffer (PBS/0.5% BSA) for 1 to 2 hours. Samples were serially diluted in sample diluent (PBS/0.5% BSA/15 ppm Proclin/0.05% Tween 20/0.2% BGG/0.25% CHAPS/5 mM EDTA/0.3 M NaCl, pH7.4) containing 0.25 ug/mL of heparin (Sigma, St. Louis, Mo., US) and incubated in the presence of either 100 ng/mL of biotin-mouse
NRP1-Fc (0.66 nM for PlGF/NRP1 binding) or 425 ng/mL of biotin-NRP2-Fc (6 nM for PlGF/NRP2-binding). After incubation for 2 hours, assay plates were washed 6 times with wash buffer and then incubated for 45 to 60 minutes with AMDEX streptavidin-HRP (GE Healthcare, Pittsburgh, Pa., USA) diluted 10,000 folds in assay buffer (PBS/0.5% BSA/0.05% Tween 20, pH7.4). […] Absorbance was measured at 450 nm against a reference wavelength of 620 nm.

recombinant mouse PlGF-2 [4] = biological target: T1, recombinant mouse PlGF-2; experiment: Biacore, anti-mouse Fc chip (FIG. 5B)
human PlGF-2 = biological target: T2, human PlGF-2 (human, UniProt P49763-3 19-170); experiment: Biacore, anti-mouse Fc chip (FIG. 5B)
T2 construct: Panning used human PlGF residues 19-116 and human PlGF-1; also called hPlGF-2; hPlGF
T2 sequence (looked up): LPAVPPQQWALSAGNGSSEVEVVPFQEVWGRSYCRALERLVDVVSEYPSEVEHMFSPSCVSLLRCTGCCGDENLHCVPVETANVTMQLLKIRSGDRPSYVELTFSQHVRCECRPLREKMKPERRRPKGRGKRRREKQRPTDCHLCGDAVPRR

Measured: binding

B1: anti-PlGF monoclonal antibody C9.V2 (antibody, mouse IgG2a, V domains shown)
VH: EVQLVESGGGLVQPGGSLRLSCAASGFTFTNTWISWVRQAPGKGLEWVGSITPANGYTNYADSVKGRFTISADTSKNTAYLQMNSLRAEDTAVYYCARAVYPWFFAYWGQGTLVTVSS
VL: DIQMTQSPSSLSASVGDRVTITCRASQYVSHAVAWYQQKPGKAPKLLIYSASFLYSGVPSRFSGSGSGTDFTLTISSLQPEDFATYYCQSAYTPPTTFGQGTKVEIK
notes: also called C9v2.9; anti-PlGF MAb C9v2
binds: recombinant mouse PlGF-2 [1] | recombinant mouse PlGF-2 [2] | recombinant mouse PlGF-2 [3] | recombinant mouse PlGF-2 [4] | human PlGF-2

— patent US20110171231A1 (published 2011)
